# Results of single-concentration screens

Protein sequences, listed by entry. Tags and fused reporters are not part of them. Residues count along the entry.
UniProt I6X8D2, whole entry: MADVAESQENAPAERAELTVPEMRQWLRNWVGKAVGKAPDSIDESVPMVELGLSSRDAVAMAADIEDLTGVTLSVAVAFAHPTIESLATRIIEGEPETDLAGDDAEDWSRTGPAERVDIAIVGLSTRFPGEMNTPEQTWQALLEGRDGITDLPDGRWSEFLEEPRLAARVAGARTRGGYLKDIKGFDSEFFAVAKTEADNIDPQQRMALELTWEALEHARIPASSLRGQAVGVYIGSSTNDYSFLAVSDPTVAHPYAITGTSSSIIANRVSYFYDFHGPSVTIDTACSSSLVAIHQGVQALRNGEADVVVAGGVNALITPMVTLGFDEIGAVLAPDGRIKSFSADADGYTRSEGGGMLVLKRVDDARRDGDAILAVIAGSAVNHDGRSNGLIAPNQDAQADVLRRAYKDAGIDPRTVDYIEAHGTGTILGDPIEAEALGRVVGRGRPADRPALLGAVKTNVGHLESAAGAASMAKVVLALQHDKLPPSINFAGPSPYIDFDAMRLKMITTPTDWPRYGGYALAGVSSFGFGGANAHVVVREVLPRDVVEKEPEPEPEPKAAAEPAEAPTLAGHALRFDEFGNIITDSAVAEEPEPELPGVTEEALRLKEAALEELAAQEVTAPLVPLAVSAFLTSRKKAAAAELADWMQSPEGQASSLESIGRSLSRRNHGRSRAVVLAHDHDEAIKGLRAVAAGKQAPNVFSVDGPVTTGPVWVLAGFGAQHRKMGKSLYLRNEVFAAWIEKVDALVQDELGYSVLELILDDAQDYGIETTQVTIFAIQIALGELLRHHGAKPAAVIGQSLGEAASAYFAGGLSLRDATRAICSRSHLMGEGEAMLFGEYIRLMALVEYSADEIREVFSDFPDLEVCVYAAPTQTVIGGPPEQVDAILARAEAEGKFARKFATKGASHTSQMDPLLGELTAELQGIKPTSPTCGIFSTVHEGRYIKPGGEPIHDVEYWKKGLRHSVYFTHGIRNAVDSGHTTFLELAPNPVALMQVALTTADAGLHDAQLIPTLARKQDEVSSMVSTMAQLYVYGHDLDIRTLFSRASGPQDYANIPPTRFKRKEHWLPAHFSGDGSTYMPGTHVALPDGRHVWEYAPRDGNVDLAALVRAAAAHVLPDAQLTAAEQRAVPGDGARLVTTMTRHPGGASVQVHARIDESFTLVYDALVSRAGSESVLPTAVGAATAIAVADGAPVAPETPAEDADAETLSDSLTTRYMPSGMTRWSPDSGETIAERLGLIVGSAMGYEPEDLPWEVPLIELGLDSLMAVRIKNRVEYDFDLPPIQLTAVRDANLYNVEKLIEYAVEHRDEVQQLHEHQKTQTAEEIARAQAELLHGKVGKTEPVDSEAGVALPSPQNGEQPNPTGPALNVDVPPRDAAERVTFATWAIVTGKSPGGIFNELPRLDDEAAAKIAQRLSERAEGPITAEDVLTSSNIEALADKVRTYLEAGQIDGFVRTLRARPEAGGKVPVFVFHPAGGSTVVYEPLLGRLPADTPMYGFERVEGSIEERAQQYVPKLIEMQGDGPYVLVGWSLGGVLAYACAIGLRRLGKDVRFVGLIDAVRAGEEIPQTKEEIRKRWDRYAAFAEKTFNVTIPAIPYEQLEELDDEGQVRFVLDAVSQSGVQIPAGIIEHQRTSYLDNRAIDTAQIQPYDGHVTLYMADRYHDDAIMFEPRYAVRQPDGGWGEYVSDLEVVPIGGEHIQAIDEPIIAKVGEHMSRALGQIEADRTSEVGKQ
UniProt Q4DA54, 1-478: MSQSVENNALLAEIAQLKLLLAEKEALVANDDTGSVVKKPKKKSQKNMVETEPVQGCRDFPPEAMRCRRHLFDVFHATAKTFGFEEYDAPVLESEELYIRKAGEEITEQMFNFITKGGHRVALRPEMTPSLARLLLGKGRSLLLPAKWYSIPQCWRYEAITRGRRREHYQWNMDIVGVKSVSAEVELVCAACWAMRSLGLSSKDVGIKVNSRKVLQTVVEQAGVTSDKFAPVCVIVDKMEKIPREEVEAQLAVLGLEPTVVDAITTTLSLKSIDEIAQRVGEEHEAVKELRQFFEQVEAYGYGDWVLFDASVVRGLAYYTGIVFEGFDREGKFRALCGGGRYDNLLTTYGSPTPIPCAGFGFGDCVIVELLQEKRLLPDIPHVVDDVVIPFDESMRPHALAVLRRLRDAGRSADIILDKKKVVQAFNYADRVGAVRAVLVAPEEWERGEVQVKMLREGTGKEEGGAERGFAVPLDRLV

The filed quantity is “Percent Effect” (%).
The record does not define 0% and 100%; most values in the screen are far below 50% and negative numbers occur (in some assays of this library far below -100).
Compounds were drawn at random from those tested, without regard to their results.
A dash means the value is not listed here; it may have been measured.

Pks13 thioesterase: 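Polyketide synthase Pks13, Mycobacterium tuberculosis (UniProt I6X8D2). Enzyme assay of the thioesterase domain of polyketide synthase 13; the read-out is not stated. Compounds at 30 µM. The record gives no direction; the compounds picked for IC50 retests had high values, so higher reads as stronger inhibition. Of about 67,000 compounds tested this way, about 300 (0.46%) reached 50% or more in at least one test.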
TcHisRS: 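Enzyme assay of histidyl-tRNA synthetase; the read-out is not stated. Target: Histidine-tRNA ligase, Trypanosoma cruzi CL Brener (UniProt Q4DA54). Compounds at 30 µM. Direction is inferred from retests: higher values go with stronger inhibition. Of about 69,000 compounds tested this way, about 31 (0.045%) reached 50% or more in at least one test.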

SMILES	Pks13 thioesterase	TcHisRS
CN1CCN([C@@H]2CCN(C(N)=O)[C@H]2Cc2ccccc2)CC1	-1.563	6.952
CN1C(=O)CC(C(=O)O)C12CCN(Cc1ccc(Cl)c(Cl)c1)CC2 (stereo not given)	-34.36	4.372
COc1ccc(CNCC(C)Oc2ccccn2)cc1Cl (stereo not given)	-14.2	2.924
CC(C)N1CCC2(CC1)CN(C)C(=O)C[C@H]2C(F)(F)F	-9.964	7.362
CCc1cccc2c(CC(=O)N(C)CCN(C)C)c(C)[nH]c12	-9.461	4.52
CC(NC(=O)CCCOc1ccccc1)c1nnc2n1CCCCC2 (stereo not given)	-10.28	-42.11
O=C(CCn1c(C(F)(F)F)cc2cccnc21)N1CCCC1	1.199	-12.69
CN1CC(=O)N(c2cccnc2)CC12CCN(C(=O)C1CCCCC1)C2 (stereo not given)	8.507	3.784
CCN(CC)C(=O)CCNC(=O)N1CCC(c2ccccc2)C1 (stereo not given)	-11.36	3.333
CCOc1ccc(C(C)NC(=O)N2CCC(C(N)=O)CC2)cc1OC (stereo not given)	-18.03	2.5
CC(C)C(=O)NCCc1cc2nc(-c3ccncc3)ccn2n1	13.08	0
CN(CC(=O)NC(N)=O)CC1(c2ccc(Br)cc2)CC1	7.436	3.509
CCOC(C)c1nc(Cn2cc(C(=O)NC)ccc2=O)cs1 (stereo not given)	-9.385	1.299
CCN(C1CCS(=O)(=O)C1)S(=O)(=O)c1cccc2cc(C)cnc12 (stereo not given)	-12.02	5.303
CC(C)(Oc1ccc2c(c1)CCCC2=O)C(=O)NCc1ccco1	-24.26	10.83
CCOC(=O)N1CCN(C(=O)c2sc(-c3ccccc3F)nc2C)CC1	-16.16	1.653
COC(=O)c1cccc(C(=O)N2CCN(c3cccc(C)c3C)CC2)n1	-5.245	1.087
OCCn1nccc1C1CCN(CCOc2ccccc2F)CC1	-8.529	4.624
CCc1nc(CCn2ccnc2-c2nccn2C)no1	-30.86	3.911
O=C(c1coc(-c2ccccc2)n1)N1CCCCC1	1.165	0
N#Cc1cccc(S(=O)(=O)NC(=O)COC2CCCC2)c1	-14.01	3.817
O=c1cc(Cn2ccnc2)nc2n1CCCN(Cc1ccsc1)C2	-15	-2.732
CC(C)Nc1ncnc2c1CCNCC2	-39.75	6.452
COCC(=O)N1CCc2c(CNS(C)(=O)=O)n[nH]c2C1	-21.95	0.4975
CC(C)CCN1C[C@H]2C[C@H](C(=O)NCc3ccccc3)[C@@H](C1)O2	-14.18	5.785
CC(C)Cc1cc(CN2C[C@H]3CC[C@@H]2CN(Cc2cscn2)C3)n[nH]1	-33.95	12
Cc1ccc2c(n1)N(CCN(C)C)CCN(C(=O)c1ccco1)C2	-7.121	9.184
NC(=O)c1csc(N2CCCC(c3n[nH]c(=O)n3-c3ccccc3)C2)n1 (stereo not given)	-6.873	5.042
O=C(Cc1n[nH]c(-c2cncc(Br)c2)n1)NCc1cccnc1	-14	-1.288
Cc1cc(N(C)C)nc(C2(C)CCCN2C(=O)c2cncnc2C)n1 (stereo not given)	-5.191	3.745
Cc1c(C(=O)N2CCCC2c2cnn(C)c2)nnn1-c1ccccc1 (stereo not given)	-14.61	-4.981
Cc1nc(C2CCCN2CC(=O)NCCOc2ccccc2)no1 (stereo not given)	-9.552	1.901
CC(C)n1nc(CNc2ncccn2)c2c1CN(S(C)(=O)=O)CC2	-22.46	-1.935
CN(C)C(=O)COC[C@@H]1CC[C@H]2[C@H](CCN2c2ccccn2)O1	13.63	1.84
CN1CCOC(CN(C(=O)CCCn2cccn2)c2nccs2)C1 (stereo not given)	-8.434	1.744
NC(=O)CCc1cccc(C2CCNCC2)n1	-11.34	2.308
O=c1cc(N2CCCC2)cnn1CCc1cccc(F)c1	-23.68	-1.235
CCn1cc(CN2CCCn3nc(CCC(=O)NCCO)cc3C2)cn1	5.293	5.021
C[C@@H]1CN(C(=O)c2cn(CCN3CCCCC3)nn2)C[C@H](C)O1	-24.99	7.447
CN1CC(c2ccccc2)CC2(CCN(Cc3ncc[nH]3)CC2)C1 (stereo not given)	-1.14	2.469
N#Cc1ccc(N2CCC3(CC2)CC(N2CCOCC2)CO3)cc1 (stereo not given)	2.111	6.667
CC(C)NC(=O)N1CCN(C(=O)C(C)C)CC2(CC(=O)N(C)C2)C1 (stereo not given)	29.06	-1.22
Cc1occc1C(=O)N(CCN(C)C)Cc1ccccn1	1.961	0
COc1c(C2CCCN2C(=O)c2cc(Cl)c[nH]2)c(C)nn1C (stereo not given)	-17.44	1.604
O=S(=O)(c1ccc(-c2nc3c([nH]2)CCNC3)cc1)N1CCCC1	-17.96	3.571
COCc1nc(Cn2c(C)cc(C(F)(F)F)cc2=O)no1	-24.15	4.478
CCSC(C)c1nc(-c2ccc(C)nn2)no1 (stereo not given)	-11.32	0
Cc1ccc(CN2CCN(C(=O)C3CCC3)[C@@H]3CS(=O)(=O)C[C@@H]32)cc1C	-23.01	3.96
COc1cc(CNC(=O)COC2CCCC2)ccc1O	-29.27	7.182
O=C(NCCC(=O)N1CCCC1)C(OC1CCCC1)c1ccccc1 (stereo not given)	12.84	-0.5128
CCCS(=O)(=O)N1CCn2cc(CNc3ccccn3)nc2C1	-32.81	8.458
Cn1c(C2CC2)nc2c1CCN(CC(=O)Nc1nccs1)C2	-12.28	6.34
Cc1nc(C(=O)N2CCCC(c3nc(C(C)C)cs3)C2)c[nH]1 (stereo not given)	-13.29	1.807
NC(=O)C1CCCN(c2ccc(CNC(=O)c3cc[nH]n3)cc2)C1 (stereo not given)	-25.18	0
CNc1cc(CCNS(=O)(=O)c2ccccc2)nc(-c2ccccn2)n1	3.39	7.576
CS(=O)(=O)Cc1nc(CN2CCOc3ccccc3C2)cs1	-29.49	1.685
O=C(NCCC1COc2ccccc2O1)c1ccc(-c2cn[nH]c2)nc1 (stereo not given)	-0.6754	7.2
c1cncc(CN2CCOC(c3ncn4c(C5CC5)cccc34)C2)c1 (stereo not given)	-3.44	7.595
O=C1CC(N(C(=O)c2ccc(F)c(F)c2)C2CC2)C(=O)N1 (stereo not given)	-6.207	4
O=C([C@@H]1COC[C@H]2CN(CC3CC3)C[C@H]21)N1CCC(F)CC1	20.6	5.063
CNC(=O)C1=NOC2(CCN(Cc3nccs3)C2)C1 (stereo not given)	4.425	2.479
COc1cc(C(=O)N2CC[C@@H](NC(=O)c3ccccn3)[C@H](O)C2)ccn1	-42.52	-2.235
Cc1ccc(CCNC(=O)c2cccnc2)o1	-15.12	2.597
O=C(NC1CCCN(c2ccccc2F)C1)c1ccon1 (stereo not given)	-	2.597
O=C(NCc1ccccn1)NCC(O)c1ccccc1C(F)(F)F (stereo not given)	-30.2	-16.88
CN1CCc2ncc(CNC(=O)c3cccn3C)n2CC1	-31.56	3.922
COc1c(C)cnc(CN2CCn3c(nnc3C3CC3)C2)c1C	-9.367	2.679
O=C1C(N2CCN(c3ccc(O)cc3)CC2)CCN1C1CCOCC1 (stereo not given)	-20.55	-2.521
CC1(C)COCCN1C(=O)CCc1nc(-c2ccc(Cl)cc2)no1	-5.053	5.172
COC1(CNC(=O)NCc2ccccc2)CCSC1 (stereo not given)	-11.5	8.434
CCc1cc(N(C)Cc2noc(C(C)C)n2)nc(N2CCOCC2)n1	-32.39	9.091
Cc1ccc(CN2C[C@H](NC(=O)c3nccn3C)[C@H]3OCCC[C@H]32)o1	-34.15	4.42
c1cnc2[nH]c(C3CCCNC3)c(CN3CCCOCC3)c2c1 (stereo not given)	8.288	8.511

Some entries from above, unchanged:

SMILES	Pks13 thioesterase	TcHisRS
c1cncc(CN2CCOC(c3ncn4c(C5CC5)cccc34)C2)c1 (stereo not given)	-3.44	7.595
CC(C)C(=O)NCCc1cc2nc(-c3ccncc3)ccn2n1	13.08	0
Cc1cc(N(C)C)nc(C2(C)CCCN2C(=O)c2cncnc2C)n1 (stereo not given)	-5.191	3.745
COc1ccc(CNCC(C)Oc2ccccn2)cc1Cl (stereo not given)	-14.2	2.924
CCN(C1CCS(=O)(=O)C1)S(=O)(=O)c1cccc2cc(C)cnc12 (stereo not given)	-12.02	5.303

Data taken from ChEMBL document CHEMBL3988442, “University of Dundee, Small-Polar-MMV Screening Library” (2021).